Results published in article PMC10541902.
Results are given in words; binding and its absence hold for the method and conditions named. In cells and extracts the contact can be indirect. Binding can be weak; no strength is given.

Sequences of proteins named here, by UniProt entry; tags and fusion partners are left off. A change or cut given only in a name is not applied to a line headed by its entry.
UniProt Q9CYV5: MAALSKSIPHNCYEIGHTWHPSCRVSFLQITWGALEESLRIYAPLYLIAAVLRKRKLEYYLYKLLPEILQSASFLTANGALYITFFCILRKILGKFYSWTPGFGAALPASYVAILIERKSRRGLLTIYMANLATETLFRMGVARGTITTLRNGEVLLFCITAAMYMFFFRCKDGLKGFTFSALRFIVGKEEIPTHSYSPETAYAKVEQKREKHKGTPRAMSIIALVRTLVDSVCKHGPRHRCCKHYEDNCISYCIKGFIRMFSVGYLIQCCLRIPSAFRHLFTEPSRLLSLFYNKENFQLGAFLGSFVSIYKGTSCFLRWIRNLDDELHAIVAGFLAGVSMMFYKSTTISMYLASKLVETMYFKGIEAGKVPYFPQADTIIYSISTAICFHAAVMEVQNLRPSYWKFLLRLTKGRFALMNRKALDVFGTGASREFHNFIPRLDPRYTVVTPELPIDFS

Biological target: GST-TMEM135 fusion protein (mouse) (UniProt Q9CYV5)
Experiment: pull-down; 5 ug GST-TMEM135 on glutathione agarose beads added to brown adipocyte RIPA lysate diluted with an equal volume of detergent-free buffer (10% glycerol, 1 mM DTT in PBS), 4 °C overnight; washed four times with TBS; GST alone beads as control; only the target purified

B1: A-kinase anchor protein 1 (AKAP1), endogenous in brown adipocytes (protein, UniProt O08715-1 30-857)
chain: KDRLSSSDKQVETLKVGPAIKDRRLSEEACPGVLSVAPTVTQPPGREEQRCVDKPSTEPLALPRTRQVRRRSESSGNLPSVADTRSQPGPCRDEIAKVELSLMGDKAKSIPLGCPLLPKDASFPYEAVERCKQESALGKTPGRGWPSPYAASGEKARETGGTEGTGDAVLGENVSEEGLLSQECVSEVEKSEFPILAPGGGEGEEVSHGPPQVAELLKKEEYIVGKLPSSFVEPVHSEPVKDEDALEPQVKGSSNTSDRDLAGELDKDETVPENDQIKQAAFQLISQVILEATEEFRATTVGKTVAQVHPTSATQPKGKEESCVPASQETSLGQDTSDPASTRTGATASPSAEALPPKTYVSCLSSPLSGPTKDQKPKNSAHHISLAPCPPPVTPQRQSLEGASNPRGDDNFVACMANNSQSVLSVSSLGQCSDPVSTSGLEDSCTETISSSGDKAMTPPLPVSTQPFSNGVLKEELSDLGTEDGWTMDTEADHSGGSDGNSMDSVDSCCGLTKPDSPQSVQAGSNPKKVDLIIWEIEVPKHLVGRLIGKQGRYVSFLKQTSGAKIYISTLPYTQNIQICHIEGSQHHVDKALNLIGKKFKELNLTNIYAPPLPSLALPSLPMTSWLMLPDGITVEVIVVNQVNAGHLFVQQHTHPTFHALRSLDQQMYLCYSQPGIPTLPTPVEITVICAAPGADGAWWRAQVVASYEETNEVEIRYVDYGGYKRVKVDVLRQIRSDFVTLPFQGAEVLLDSVVPLSDDDHFSPEADAAMSEMTGNTALLAQVTSYSATGLPLIQLWSVVGDEVVLINRSLVERGLAQWVDSYYASL
Question: B1 was tested. Which binding did it give?
Answer: Its binding is “binds”.
